PubChem BioAssay AID1259405, NCATS, 2018

- Assay: 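Knock-downs that lift recombinant protein yield in hamster ovary cells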 (primary screen)
- Cell system: Chinese hamster CHO-K1 ovary cells with stable secreted eGFP expression
- Knock-down reagent: single siRNA against mouse genes, 0.8 pmol siRNA per well (2 µl of 400 nM stock)
- Duration: 3 days
- Measurement: 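Per-well intracellular GFP measured by laser scanning cytometry, plus viability from ATP luminescence, each relative to plate median of non-targeting control wells, in %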
- Scale: GFP, % of control: higher = more GFP per well, higher productivity; viability (ATP), % of control: higher = more viable cells (more ATP)
- Hit rule: 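a knock-down is called active if GFP reaches 120% or more of non-targeting control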
In all, the deposit lists about 50,000 reagents; below is an unselected part. About 4,000 of them (8%) count as active. 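Mouse siRNA library applied to hamster cells; one well for each siRNA.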 The numbers tell different reagents against one gene apart.

The opening 8 records as a preview:
no.	gene symbol	reagent	GFP, % of control	viability (ATP), % of control	outcome
1	Kcnc3	1	67.2	65.2	inactive
2	Kcnc3	2	97	69.4	inactive
3	Kcnc3	3	85	74.5	inactive
4	Pcmtd1	1	72.4	83.3	inactive
5	Pcmtd1	2	94.2	61	inactive
6	Pcmtd1	3	57.9	66.7	inactive
7	Hccs	1	94	102	inactive
8	Hccs	2	93.7	70.7	inactive

Main list, from the start:
no.	gene symbol	reagent	GFP, % of control	viability (ATP), % of control	outcome
1	Kcnc3	1	67.2	65.2	inactive
2	Kcnc3	2	97	69.4	inactive
3	Kcnc3	3	85	74.5	inactive
4	Pcmtd1	1	72.4	83.3	inactive
5	Pcmtd1	2	94.2	61	inactive
6	Pcmtd1	3	57.9	66.7	inactive
7	Hccs	1	94	102	inactive
8	Hccs	2	93.7	70.7	inactive
9	Hccs	3	57.4	76.7	inactive
10	Fer	1	69.1	62.1	inactive
11	Ccdc34	1	75.6	56.8	inactive
12	Ccdc34	2	58.5	61.4	inactive
13	Ccdc34	3	87	90.9	inactive
14	Abca17	1	78.8	51	inactive
15	Abca17	2	22.4	47.3	inactive
16	Abca17	3	63.6	96.9	inactive
17	Urb2	1	73.4	31.4	inactive
18	Urb2	2	59.4	80.1	inactive
19	Urb2	3	95.8	66.4	inactive
20	Psma2	1	13.8	4.49	inactive
21	Psma2	2	68.9	54.8	inactive
22	Psma2	3	54.9	68.1	inactive
23	Cilp	1	138	159	active
24	Cilp	2	93.6	64.3	inactive
25	Coch	1	103	64.2	inactive
26	Coch	2	105	79.7	inactive
27	Cblif	1	45.5	46	inactive
28	Cblif	2	62.2	55.7	inactive
29	Cblif	3	67.9	35.7	inactive
30	Fgfr3	1	149	97.3	active
31	Casp2	1	90.4	69.2	inactive
32	Casp2	2	66.8	75.6	inactive
33	Casp2	3	88.2	93.5	inactive
34	Mill2	1	107	115	inactive
35	Mill2	2	80.4	79	inactive
36	Gldc	1	82.3	65.4	inactive
37	Gldc	2	61.6	64.2	inactive
38	Gldc	3	101	64.8	inactive
39	Zmynd8	1	96.1	96.3	inactive
40	Zmynd8	2	149	119	active
41	Nme8	1	75.7	75.9	inactive
42	Nme8	2	89.8	76.1	inactive
43	Nme8	3	59.4	66.6	inactive
44	Cyfip2	1	78.9	78.4	inactive
45	Cyfip2	2	72.5	76.5	inactive
46	Cyfip2	3	60.4	52.4	inactive
47	Pde4c	1	89.9	74.7	inactive
48	Pde4c	2	67.9	38	inactive
49	Pde4c	3	41	60	inactive
50	Gpr12	1	37.1	57.5	inactive
51	Gpr12	2	75.6	80.9	inactive
52	Gpr12	3	73.2	83.2	inactive
53	Pigh	1	95.4	99.5	inactive
54	Pigh	2	98.6	118	inactive
55	Pigh	3	87.1	76.3	inactive
56	Ticam2	1	42	43.2	inactive
57	Ticam2	2	77.8	65.1	inactive
58	Ticam2	3	41.9	34.5	inactive
59	Upb1	1	74.7	75.3	inactive
60	Upb1	2	136	88.4	active
61	Upb1	3	72.8	75.3	inactive
62	Nrde2	1	53.4	99.8	inactive
63	Nrde2	2	94.4	92.3	inactive
64	Nrde2	3	142	74.2	active
65	Map4k1	1	117	73.7	inactive
66	Arhgap28	1	79.2	81	inactive
67	Arhgap28	2	95.9	68.6	inactive
68	Arhgap28	3	46.9	66.3	inactive
69	Ubxn7	1	67.7	32.5	inactive
70	Ubxn7	2	72.7	70.3	inactive
71	Ubxn7	3	70.3	111	inactive
72	Hps1	1	75.9	80	inactive
73	Hps1	2	105	110	inactive
74	Hps1	3	91.6	91.6	inactive
75	Emp2	1	47.4	47.4	inactive
76	Emp2	2	78.9	79	inactive
77	Emp2	3	89.8	74.6	inactive
78	Fancd2os	1	73.2	55.3	inactive
79	Fancd2os	2	85.7	45.5	inactive
80	Fancd2os	3	110	115	inactive
81	Mmd2	1	146	89.2	active
82	Mmd2	2	51.5	52.4	inactive
83	Mmd2	3	87	75.7	inactive
84	Arhgef28	1	62	69.6	inactive
85	Arhgef28	2	74.2	96.3	inactive
86	Arhgef28	3	22.1	51.6	inactive
